In the supplement of paper PMC6411743 one finds NP40-soluble protein abundance data, which are given here for five targets.

Protein sequences, listed by entry. Tags and fused reporters are not part of them. Lines headed by an entry give the natural chain unless they say otherwise; changes in a name come on top.
UniProt P30622: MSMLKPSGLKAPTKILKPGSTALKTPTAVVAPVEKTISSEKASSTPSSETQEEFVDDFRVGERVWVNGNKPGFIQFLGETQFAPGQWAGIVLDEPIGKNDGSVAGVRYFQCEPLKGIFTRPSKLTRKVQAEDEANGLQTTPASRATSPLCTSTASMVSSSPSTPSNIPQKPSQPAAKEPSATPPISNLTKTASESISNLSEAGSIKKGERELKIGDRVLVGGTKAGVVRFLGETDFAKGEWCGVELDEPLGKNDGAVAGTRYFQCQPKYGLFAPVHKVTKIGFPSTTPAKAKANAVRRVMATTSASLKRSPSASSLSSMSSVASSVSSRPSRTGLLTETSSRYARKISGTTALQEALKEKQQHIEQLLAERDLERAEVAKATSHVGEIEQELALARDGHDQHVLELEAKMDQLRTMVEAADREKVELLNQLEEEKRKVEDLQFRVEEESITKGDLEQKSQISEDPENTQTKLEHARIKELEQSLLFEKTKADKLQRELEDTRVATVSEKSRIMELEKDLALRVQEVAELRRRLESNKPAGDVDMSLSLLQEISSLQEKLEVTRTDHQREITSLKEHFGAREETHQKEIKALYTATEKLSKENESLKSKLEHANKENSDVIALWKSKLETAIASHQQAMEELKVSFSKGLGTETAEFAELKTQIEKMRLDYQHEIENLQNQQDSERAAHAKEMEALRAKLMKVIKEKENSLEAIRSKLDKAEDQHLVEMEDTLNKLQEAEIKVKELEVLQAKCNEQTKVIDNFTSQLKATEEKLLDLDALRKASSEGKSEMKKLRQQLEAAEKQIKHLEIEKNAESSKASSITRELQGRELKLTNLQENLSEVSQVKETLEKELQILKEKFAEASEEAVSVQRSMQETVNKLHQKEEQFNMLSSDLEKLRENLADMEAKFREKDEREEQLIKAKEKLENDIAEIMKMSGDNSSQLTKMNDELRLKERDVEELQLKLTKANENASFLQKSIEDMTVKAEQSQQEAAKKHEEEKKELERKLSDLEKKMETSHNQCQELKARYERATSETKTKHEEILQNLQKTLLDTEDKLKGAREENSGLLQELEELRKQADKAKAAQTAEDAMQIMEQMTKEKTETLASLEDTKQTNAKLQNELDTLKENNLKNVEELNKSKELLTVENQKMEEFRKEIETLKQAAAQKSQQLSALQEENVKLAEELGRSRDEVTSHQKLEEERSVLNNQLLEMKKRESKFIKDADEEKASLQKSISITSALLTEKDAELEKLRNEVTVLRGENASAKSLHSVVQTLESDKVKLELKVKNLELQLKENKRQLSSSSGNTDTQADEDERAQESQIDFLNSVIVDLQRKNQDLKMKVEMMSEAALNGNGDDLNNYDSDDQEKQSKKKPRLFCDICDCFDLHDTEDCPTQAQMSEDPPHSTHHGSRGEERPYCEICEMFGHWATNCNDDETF
UniProt P46736, whole entry: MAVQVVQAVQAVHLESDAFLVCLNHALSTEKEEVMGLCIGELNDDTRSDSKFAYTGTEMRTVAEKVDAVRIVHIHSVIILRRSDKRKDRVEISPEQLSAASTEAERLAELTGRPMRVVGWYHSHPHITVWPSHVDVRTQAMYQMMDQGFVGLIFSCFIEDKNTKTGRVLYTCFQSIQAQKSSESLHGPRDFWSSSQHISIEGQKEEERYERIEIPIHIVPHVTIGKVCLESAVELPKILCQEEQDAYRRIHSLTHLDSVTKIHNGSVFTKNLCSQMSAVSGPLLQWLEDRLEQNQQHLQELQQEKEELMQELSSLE
UniProt P49840: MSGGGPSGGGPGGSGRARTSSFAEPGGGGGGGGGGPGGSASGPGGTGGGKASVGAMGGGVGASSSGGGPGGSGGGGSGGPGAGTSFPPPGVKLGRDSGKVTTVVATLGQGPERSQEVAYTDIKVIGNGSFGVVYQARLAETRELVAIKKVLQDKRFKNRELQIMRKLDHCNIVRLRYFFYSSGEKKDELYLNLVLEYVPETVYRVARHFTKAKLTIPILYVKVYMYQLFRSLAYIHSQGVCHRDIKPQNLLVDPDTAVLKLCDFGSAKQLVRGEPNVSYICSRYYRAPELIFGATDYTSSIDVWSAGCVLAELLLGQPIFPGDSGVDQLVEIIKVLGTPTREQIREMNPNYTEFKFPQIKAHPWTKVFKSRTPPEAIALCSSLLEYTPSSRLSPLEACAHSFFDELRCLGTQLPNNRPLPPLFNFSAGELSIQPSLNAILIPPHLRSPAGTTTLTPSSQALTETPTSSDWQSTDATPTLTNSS
UniProt P49257: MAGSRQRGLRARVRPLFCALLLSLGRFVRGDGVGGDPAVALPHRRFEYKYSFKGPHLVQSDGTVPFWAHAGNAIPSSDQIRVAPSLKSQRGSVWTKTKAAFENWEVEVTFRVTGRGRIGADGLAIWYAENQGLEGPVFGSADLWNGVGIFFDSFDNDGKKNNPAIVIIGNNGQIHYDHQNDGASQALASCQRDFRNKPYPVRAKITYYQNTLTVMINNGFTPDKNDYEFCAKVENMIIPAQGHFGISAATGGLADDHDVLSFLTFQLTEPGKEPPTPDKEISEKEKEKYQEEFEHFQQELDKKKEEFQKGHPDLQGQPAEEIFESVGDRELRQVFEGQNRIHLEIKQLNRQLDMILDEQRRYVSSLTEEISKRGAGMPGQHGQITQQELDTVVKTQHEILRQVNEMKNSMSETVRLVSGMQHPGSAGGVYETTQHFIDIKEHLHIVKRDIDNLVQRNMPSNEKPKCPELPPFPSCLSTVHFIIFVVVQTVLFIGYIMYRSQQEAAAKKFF
UniProt P29374: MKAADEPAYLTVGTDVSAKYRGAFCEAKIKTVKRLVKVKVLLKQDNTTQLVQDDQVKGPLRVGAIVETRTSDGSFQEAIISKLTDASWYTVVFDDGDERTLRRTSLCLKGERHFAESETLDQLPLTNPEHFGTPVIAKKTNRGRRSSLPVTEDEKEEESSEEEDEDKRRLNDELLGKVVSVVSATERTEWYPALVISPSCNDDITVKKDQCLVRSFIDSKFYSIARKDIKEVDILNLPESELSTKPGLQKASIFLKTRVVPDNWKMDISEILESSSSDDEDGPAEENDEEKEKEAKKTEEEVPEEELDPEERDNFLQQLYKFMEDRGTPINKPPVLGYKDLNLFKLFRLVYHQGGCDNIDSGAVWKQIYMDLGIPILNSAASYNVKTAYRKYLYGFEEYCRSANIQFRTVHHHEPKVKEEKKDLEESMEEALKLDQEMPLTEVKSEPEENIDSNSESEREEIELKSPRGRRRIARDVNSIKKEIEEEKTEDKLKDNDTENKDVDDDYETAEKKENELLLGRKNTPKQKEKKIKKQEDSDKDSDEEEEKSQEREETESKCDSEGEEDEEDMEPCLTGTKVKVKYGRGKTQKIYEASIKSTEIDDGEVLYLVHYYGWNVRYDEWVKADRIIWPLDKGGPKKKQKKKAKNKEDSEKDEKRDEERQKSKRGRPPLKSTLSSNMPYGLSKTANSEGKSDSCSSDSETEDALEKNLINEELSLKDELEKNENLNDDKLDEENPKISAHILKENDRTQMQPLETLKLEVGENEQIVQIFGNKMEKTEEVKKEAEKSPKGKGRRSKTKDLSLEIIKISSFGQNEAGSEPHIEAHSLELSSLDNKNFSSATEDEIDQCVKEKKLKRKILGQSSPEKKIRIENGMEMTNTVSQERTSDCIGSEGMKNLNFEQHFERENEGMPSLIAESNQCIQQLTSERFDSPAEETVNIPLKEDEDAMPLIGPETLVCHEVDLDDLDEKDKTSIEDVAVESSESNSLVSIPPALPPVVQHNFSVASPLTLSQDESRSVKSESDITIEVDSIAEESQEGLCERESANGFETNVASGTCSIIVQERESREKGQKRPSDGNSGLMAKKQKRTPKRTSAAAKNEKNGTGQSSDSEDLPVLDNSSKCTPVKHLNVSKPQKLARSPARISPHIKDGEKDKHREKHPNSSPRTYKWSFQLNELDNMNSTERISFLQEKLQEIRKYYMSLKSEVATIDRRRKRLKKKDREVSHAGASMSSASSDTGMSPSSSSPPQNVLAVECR

± gives the standard deviation of the averaged measurements. The list shows a part of the results.

Compound in this assay: Nc1nc2c(ncn2[C@@H]2O[C@H](COP(=O)(O)OP(=O)(O)OP(=O)(O)O)[C@@H](O)[C@H]2O)c(=O)[nH]1 [guanosine triphosphate]
The assay can be described thus: NP40-soluble protein abundance relative to vehicle (solubility fold change) (ratio); higher = more soluble protein in presence of GTP. As for the experimental part:
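Solubility proteome profiling in Jurkat crude lysate. Lysate was treated with Mg-GTP (0.1-10 mM) for 10 min at room temperature and 3 min at 37 °C, then solubilised with 0.8% NP40 and benzonase, followed by ultracentrifugation. Proteins were quantified by TMT10 LC-MS/MS; the value is the NP40-soluble abundance relative to the NP40-processed vehicle, from 3 independent experiments.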

Take UniProt P30622 and related entries: the NP40-soluble protein abundance came to 0.996 ± 0.068 (concentration: 0.1mM); 1 ± 0.086 (concentration: 0.5mM); 1.01 ± 0.08 (concentration: 1mM); 0.97 ± 0.11 (concentration: 2mM); 0.953 ± 0.076 (concentration: 4mM); 0.954 ± 0.069 (concentration: 6mM). The NP40-soluble protein abundance reads like this: (concentration: 8mM) 1 ± 0.088; (concentration: 10mM) 1.01 ± 0.11.

Consider UniProt P46736 and related entries, for which the NP40-soluble protein abundance runs as follows: (concentration: 0.1mM) 1.04 ± 0.029; (concentration: 0.5mM) 1.02 ± 0.049; (concentration: 1mM) 0.99 ± 0.018; (concentration: 2mM) 0.989 ± 0.052; (concentration: 4mM) 0.972 ± 0.021; (concentration: 6mM) 0.957 ± 0.021. Besides, the NP40-soluble protein abundance runs as follows: (concentration: 8mM) 0.992 ± 0.015; (concentration: 10mM) 0.959 ± 0.051.

In the case of UniProt P49840, the NP40-soluble protein abundance (concentration: 0.1mM) came out at 0.981 ± 0.028; the NP40-soluble protein abundance (concentration: 0.5mM) came out at 1.03 ± 0.029; the NP40-soluble protein abundance (concentration: 1mM) turned out to be 0.913 ± 0.022; the NP40-soluble protein abundance (concentration: 2mM) was 0.939 ± 0.02; the NP40-soluble protein abundance (concentration: 4mM) turned out to be 0.921 ± 0.044; the NP40-soluble protein abundance (concentration: 6mM) amounted to 0.925 ± 0.021. The NP40-soluble protein abundance (concentration: 8mM) was found to be 0.875 ± 0.051 and the NP40-soluble protein abundance (concentration: 10mM) was 0.888 ± 0.051.

Regarding LMAN1 (UniProt P49257), the NP40-soluble protein abundance (concentration: 0.1mM) came to 1.015 ± 0.0096; the NP40-soluble protein abundance (concentration: 0.5mM) is 1.02 ± 0.025; the NP40-soluble protein abundance (concentration: 1mM) was determined as 0.965 ± 0.028; the NP40-soluble protein abundance (concentration: 2mM) was 0.941 ± 0.024; the NP40-soluble protein abundance (concentration: 4mM) came to 0.925 ± 0.035; the NP40-soluble protein abundance (concentration: 6mM) is 0.928 ± 0.028. Besides, the NP40-soluble protein abundance amounted to 0.927 ± 0.025 (concentration: 8mM) and 0.891 ± 0.045 (concentration: 10mM).

Take UniProt P29374 and related entries: the NP40-soluble protein abundance (concentration: 0.1mM) was 0.965 ± 0.053; the NP40-soluble protein abundance (concentration: 0.5mM) turned out to be 1.04 ± 0.035; the NP40-soluble protein abundance (concentration: 1mM) was found to be 1.04 ± 0.05; the NP40-soluble protein abundance (concentration: 2mM) amounted to 1.06 ± 0.093; the NP40-soluble protein abundance (concentration: 4mM) was 1.1 ± 0.1; the NP40-soluble protein abundance (concentration: 6mM) came to 1.1 ± 0.079. Also, the NP40-soluble protein abundance (concentration: 8mM) was determined as 1.2 ± 0.14 and the NP40-soluble protein abundance (concentration: 10mM) was 1.19 ± 0.18.
